PubChem BioAssay AID1224828, NIAID | 2016

- Aim: 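Regulators linking TLR4 signalling to p65 nuclear translocation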 (primary screen)
- Cell system: mouse RAW264.7 G9 macrophage reporter cells (GFP-p65, Tnf promoter-mCherry)
- Reagent: siRNA pool against mouse genes, 100 nM
- Timing: 2 days siRNA transfection, then 40 min LPS before fixation
- Conditions: LPS (Salmonella minnesota R595) at 10 ng/ml
- Detection: 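Imaged p65 nuclear translocation ratio, normalised to the plate median, converted to robust z-scores and averaged across two replicates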
- Direction: p65 translocation robust z-score: higher = more nuclear NF-kappaB p65 after LPS than the plate median; nuclear/cytoplasmic p65 ratio: higher = more nuclear NF-kappaB p65
- Hit rule: 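Called active when z exceeds 3.3 or falls under -1.56 (median of Tlr4 controls), giving activity score of at least 50; no calls for control wells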
- Calls: active = hit (p65 shift raised or lowered); inactive = no clear change
The deposit covers about 17,000 reagents; below is an unselected part. In the full data, 762 (4.5%) are marked active. 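Active calls include both raised and lowered p65 entry, mostly lowered; wells with fewer than 50 cells lack a z-score.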 The raw values are shown without normalisation.

| gene | p65 translocation robust z-score | nuclear/cytoplasmic p65 ratio, rep 1 | nuclear/cytoplasmic p65 ratio, rep 2 | low cell count flag | call |
| --- | --- | --- | --- | --- | --- |
| Capn5 (calpain 5) | 0.25 | 1.54 | 1.92 | enough cells to score | inactive |
| Ppm1h (protein phosphatase 1H (PP2C domain containing)) | 2.27 | 2.14 | 1.77 | enough cells to score | inactive |
| Rln3 (relaxin 3) | – | 1.43 | 1.07 | fewer than 50 cells per well; well left out of scoring | inactive |
| Sap30bp (SAP30 binding protein) | -0.83 | 1.29 | 1.3 | enough cells to score | inactive |
| Xrcc3 (X-ray repair complementing 3) | 0.03 | 1.56 | 1.47 | enough cells to score | inactive |
| Tmem18 (transmembrane protein 18) | 0.68 | 1.75 | 1.88 | enough cells to score | inactive |
| Lyzl1 (lysozyme-like 1) | 0.73 | 1.95 | 1.55 | enough cells to score | inactive |
| H2-D4 (histocompatibility 2, D region locus 4) | 0.55 | 1.64 | 1.7 | enough cells to score | inactive |
| Fn3krp (fructosamine 3 kinase related protein) | -0.49 | 1.62 | 1.31 | enough cells to score | inactive |
| Enkd1 (enkurin domain containing 1) | – | 1.16 | 1.22 | fewer than 50 cells per well; well left out of scoring | inactive |
| Cps1 (carbamoyl-phosphate synthetase 1) | 0.26 | 1.53 | 1.4 | enough cells to score | inactive |
| 5330416C01Rik (RIKEN cDNA 5330416C01 gene) | -2.38 | 1.14 | 1.06 | enough cells to score | active |
| Lxn (latexin) | 0.22 | 1.67 | 1.65 | enough cells to score | inactive |
| Or2y14 (olfactory receptor family 2 subfamily Y member 14) | -0.72 | 1.5 | 1.2 | enough cells to score | inactive |

Records listed so far whose gene name begins with L or l (2):
| gene | p65 translocation robust z-score | nuclear/cytoplasmic p65 ratio, rep 1 | nuclear/cytoplasmic p65 ratio, rep 2 | low cell count flag | call |
| --- | --- | --- | --- | --- | --- |
| Lyzl1 (lysozyme-like 1) | 0.73 | 1.95 | 1.55 | enough cells to score | inactive |
| Lxn (latexin) | 0.22 | 1.67 | 1.65 | enough cells to score | inactive |

The results go on:
| gene | p65 translocation robust z-score | nuclear/cytoplasmic p65 ratio, rep 1 | nuclear/cytoplasmic p65 ratio, rep 2 | low cell count flag | call |
| --- | --- | --- | --- | --- | --- |
| Ankrd44 (ankyrin repeat domain 44) | – | 1.2 | 1.61 | fewer than 50 cells per well; well left out of scoring | inactive |
| Pappa (pregnancy-associated plasma protein A) | 0.22 | 1.56 | 1.36 | enough cells to score | inactive |
| Slc19a3 | – | 1.41 | 1.29 | fewer than 50 cells per well; well left out of scoring | inactive |
| Rusc1 (RUN and SH3 domain containing 1) | 0.17 | 1.47 | 1.22 | enough cells to score | inactive |
| Mfap5 (microfibrillar associated protein 5) | 0.27 | 1.78 | 1.57 | enough cells to score | inactive |
| Rap2b (RAP2B, member of RAS oncogene family) | -0.01 | 1.46 | 1.57 | enough cells to score | inactive |
| Vasn (vasorin) | – | 1.11 | 1.19 | fewer than 50 cells per well; well left out of scoring | inactive |
| Cyp2e1 (cytochrome P450, family 2, subfamily e, polypeptide 1) | -0.23 | 1.58 | 1.7 | enough cells to score | inactive |
| Gata6 (GATA binding protein 6) | -1.98 | 1.25 | 1.14 | enough cells to score | active |
| Abcb1a (ATP-binding cassette, sub-family B member 1A) | -1.83 | 1.34 | 1.34 | enough cells to score | active |
| Mucl1 (mucin-like 1) | 0.29 | 1.46 | 1.27 | enough cells to score | inactive |
| Prkce (protein kinase C, epsilon) | – | 1.76 | 1.27 | fewer than 50 cells per well; well left out of scoring | inactive |
| Gimap4 (GTPase, IMAP family member 4) | – | 1.47 | 1.45 | fewer than 50 cells per well; well left out of scoring | inactive |
| Azin2 (antizyme inhibitor 2) | -0.33 | 1.19 | 1.55 | enough cells to score | inactive |
| Spag17 (sperm associated antigen 17) | – | 1.02 | 1.27 | fewer than 50 cells per well; well left out of scoring | inactive |
| Tex18 (testis expressed gene 18) | 0.25 | 1.44 | 1.22 | enough cells to score | inactive |
| Ube2d2b (ubiquitin-conjugating enzyme E2D 2B) | -0.49 | 1.46 | 1.62 | enough cells to score | inactive |
| Snrnp200 (small nuclear ribonucleoprotein 200 (U5)) | -0.83 | 1.47 | 1.51 | enough cells to score | inactive |
| Nckap5 (NCK-associated protein 5) | 0.41 | 1.63 | 1.86 | enough cells to score | inactive |
| Plaat1 (phospholipase A and acyltransferase 1) | 0.73 | 1.58 | 1.42 | enough cells to score | inactive |
| Cab39l (calcium binding protein 39-like) | – | 1.39 | 1.37 | fewer than 50 cells per well; well left out of scoring | inactive |
| Necap2 (NECAP endocytosis associated 2) | – | 1.56 | 1.69 | fewer than 50 cells per well; well left out of scoring | inactive |
| Ifitm7 (interferon induced transmembrane protein 7) | -1.13 | 1.38 | 1.13 | enough cells to score | inactive |
| Ucp1 | 0.69 | 1.57 | 1.64 | enough cells to score | inactive |
| Fcer1g (Fc receptor, IgE, high affinity I, gamma polypeptide) | -1.6 | 1.38 | 1.16 | enough cells to score | active |
| Utp25 (UTP25 small subunit processome component) | – | 1.27 | 1.5 | fewer than 50 cells per well; well left out of scoring | inactive |
